Tested on: chromatophores

For `COC(=O)C1=C(C)NC(C)=C(C(=O)OC)C1c1ccccc1[N+](=O)[O-]` [Nifedipine], the “Threshold concentration PPB” value was “XX (key: X=1 to 100 PPB; XX=100 to 1000 PPB)”.

From US20050074834A1 (priority 2001, published 2005)
